The target in this assay is T1, E47/Pan protein (UniProt P15923).
T1 sequence: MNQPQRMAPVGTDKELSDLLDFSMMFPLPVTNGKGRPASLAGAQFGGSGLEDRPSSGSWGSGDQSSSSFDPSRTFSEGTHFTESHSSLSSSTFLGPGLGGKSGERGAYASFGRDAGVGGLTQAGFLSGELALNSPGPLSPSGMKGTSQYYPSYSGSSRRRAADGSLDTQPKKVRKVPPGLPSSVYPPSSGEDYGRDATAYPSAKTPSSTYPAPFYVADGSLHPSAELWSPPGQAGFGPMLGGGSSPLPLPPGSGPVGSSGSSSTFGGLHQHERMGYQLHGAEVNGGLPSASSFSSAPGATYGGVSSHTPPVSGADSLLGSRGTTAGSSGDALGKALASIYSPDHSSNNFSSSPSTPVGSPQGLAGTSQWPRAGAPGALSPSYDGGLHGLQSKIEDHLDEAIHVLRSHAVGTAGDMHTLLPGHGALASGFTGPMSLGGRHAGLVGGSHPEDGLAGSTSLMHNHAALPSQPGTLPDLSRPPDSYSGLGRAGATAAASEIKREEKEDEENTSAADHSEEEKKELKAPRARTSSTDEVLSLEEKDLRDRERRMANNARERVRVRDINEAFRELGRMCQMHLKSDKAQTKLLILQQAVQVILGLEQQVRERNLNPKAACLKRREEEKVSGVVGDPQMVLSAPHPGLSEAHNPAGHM
Nature of the assay: native gel or EMSA; nuclear extracts of HEK293 cells with HAND2 (wild type or G202V) mixed with the same amount of E47/Pan extract, radiolabelled consensus HAND binding site probe; complex seen on DNA. (Mobility shift assays separate free from complexed probe on a gel.)

By UniProt entry, the sequences of proteins in these tests, tags left out. Where a name states a change or a piece, a line headed by the entry shows the natural chain unless it says otherwise.
UniProt Q61039: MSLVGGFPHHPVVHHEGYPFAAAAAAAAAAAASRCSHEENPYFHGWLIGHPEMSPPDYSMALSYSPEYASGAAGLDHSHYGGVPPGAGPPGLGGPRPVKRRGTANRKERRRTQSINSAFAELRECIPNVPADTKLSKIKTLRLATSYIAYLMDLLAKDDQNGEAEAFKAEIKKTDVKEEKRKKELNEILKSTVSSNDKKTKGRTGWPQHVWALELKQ

Results are given in words; binding and its absence hold for the method and conditions named. Binding calls can cover weak binding; strength is not graded here.

These results are taken from paper PMC5431093, “A HAND to TBX5 Explains the Link Between Thalidomide and Cardiac Diseases” (Scientific Reports, 2017).

For the substance “Flag-tagged HAND2 p.G202V variant (from UniProt Q61039)”, the binding result is given as “binds”.
